Results on 17 compounds are retold here after PubChem BioAssay AID330 (DTP/NCI, 2004).

This test has as its system P388 leukemia ip, CD2F1 mice, survival T/C. Briefly: NCI In Vivo Anticancer Drug Screen. Data for tumor model P388 Leukemia (intraperitoneal) in CD2F1 (CDF1) mice. Conditions: T/C endpoint: median survival time, higher T/C = longer survival.
Where [1] appears, read: dose: 200.0 mg/kg/injection, schedule: Q01DX009 (ip), vehicle: saline with Tween-80.

Structures are written as SMILES. The list does not hold the whole screen: it gathers tests that were run many times, whatever their T/C, doses with no T/C, and many T/C values between a quarter and a half above the control. Further doses and runs are listed elsewhere. T/C: endpoint of the treated group in % of that of the vehicle group. Some entries give survivors of the animals treated and no T/C: the source holds a T/C of zero for them, seemingly a mark for toxic or unscored doses. Some survivor counts are full or nearly so, which does not show that the dose was tolerated: survival well below the control is almost never listed, so the zero probably covers shortened survival too. Survivors were counted at the toxicity check, usually on the fifth day, unless a day is given; later deaths do not show. Schedules are NCI's codes, taken here to give the interval after Q, in days (D) or hours (H), and the number of doses after X. Some entries were tested several times; the results are listed from low to high. Where survival is the endpoint, the PubChem record calls one and a half times the control and up active, and a quarter to a half above the control has no call in these data; cut-offs in other NCI protocols can differ. Some T/C values carry the count of animals alive at the toxicity check (mostly the fifth day); without a count, all were alive then.

In the case of `CC(=O)Nc1ccc2c(c1)C(N)c1ccccc1-2` (stereo not drawn), the survivor count (dose: 400.0 mg/kg/injection, schedule: Q04DX003 (ip), vehicle: saline with Tween-80) is recorded as 4 of 6.

With `COC1=CC(=N/Br)/C=CC/1=N/Br`, the T/C (dose: 50.0 mg/kg/injection, schedule: Q01DX005 (ip), vehicle: saline) was 126 % of control. The survivor count (dose: 400.0 mg/kg/injection, schedule: Q01DX005 (ip), vehicle: saline) is 3 of 6 and 4 of 5.

As for `O=NNc1cccnc1`, the T/C was 126 and 132 % of control (dose: 25.0 mg/kg/injection, schedule: Q01DX009 (ip), vehicle: water); 145 and 148 % of control (dose: 50.0 mg/kg/injection, schedule: Q01DX009 (ip), vehicle: water). The survivor count was 0 of 6 (dose: 100.0 mg/kg/injection, schedule: Q01DX009 (ip), vehicle: water) and 0 of 6 (dose: 200.0 mg/kg/injection, schedule: Q01DX009 (ip), vehicle: water).

Take `CCCCN(CCCC)CC(O)c1cc(-c2ccc(Cl)cc2)nc2c(Cl)cc(Cl)cc12` (stereo not drawn): the survivor count (dose: 240.0 mg/kg/injection, schedule: Q01DX005 (ip), vehicle: Klucel + Tween-80) was 6 of 6.

Regarding `COc1cc(OC(=O)N(CCCl)N=O)cc(OC)c1OC`, the survivor count (dose: 100.0 mg/kg/injection, schedule: Q01DX001 (ip), vehicle: Klucel (hydroxypropylcellulose) (HPC)) was 1 of 6.

For `NC(CCCc1ccc(N(CCCl)CCCl)cc1)C(=O)O` (stereo not drawn), the survivor count reads like this: (dose: 50.0 mg/kg/injection, schedule: Q01DX009 (ip), vehicle: saline with Tween-80) 0 of 6; (dose: 100.0 mg/kg/injection, schedule: Q01DX009 (ip), vehicle: saline with Tween-80) 0 of 6; under setting [1], 0 of 6.

As to `CC(=O)NS(=O)(=O)c1ccc(N=NC2C(=O)N(C(=O)c3ccccc3)N=C2C)cc1` (stereo not drawn), the survivor count (dose: 400.0 mg/kg/injection, schedule: Q01DX001 (ip), vehicle: Klucel (hydroxypropylcellulose) (HPC)) is 6 of 6.

For the compound `O=c1c2ccccc2ncn1S(=O)(=O)c1ccc(N(CCCl)CCCl)cc1`, the T/C (dose: 400.0 mg/kg/injection, schedule: Q04DX002 (ip), vehicle: saline with Tween-80) was 133 % of control.

In the case of `O=c1c2cc(O)c(O)cc2oc2cc(O)c(C3OC(CO)C(O)C(O)C3O)c(O)c12` (stereo not drawn), the T/C (dose: 200.0 mg/kg/injection, schedule: Q01DX001 (ip), vehicle: saline) is 135 % of control.

For `OCCN(CCCN(CCO)C(=S)S)C(=S)S.[Cu+2]`, the survivor count (dose: 100.0 mg/kg/injection, schedule: Q01DX005 (ip), vehicle: saline + Tween-80 + alcohol) is 0 of 5 and the survivor count (dose: 200.0 mg/kg/injection, schedule: Q01DX005 (ip), vehicle: saline + Tween-80 + alcohol) is on record as 0 of 5.

Regarding `O=C(O)c1ccc(O)c(C(=O)O)c1`, under setting [1], the survivor count is recorded as 1 of 6.

In the case of `Cc1[nH]c2c(-c3ccccc3)c3cc(Cl)ccc3nc2c1C(=O)O`, the survivor count (dose: 200.0 mg/kg/injection, schedule: Q01DX009 (ip), vehicle: Klucel (hydroxypropylcellulose) (HPC)) was 6 of 6.

`CN1CCN(C)B1N=S(C)(C)=O`: the survivor count (dose: 200.0 mg/kg/injection, schedule: Q01DX005 (ip), vehicle: olive oil, sesame oil, peanut oil) is given as 6 of 6.

Consider `CNC(=O)Nc1ccncc1`, for which the survivor count (dose: 100.0 mg/kg/injection, schedule: Q01DX009 (ip), vehicle: saline) is given as 0 of 5.

Take `Cc1c(COC(=O)NC(C)C)c(COC(=O)NC(C)C)c2n1CS(=O)C2` (stereo not drawn): the T/C is 126 % of control (dose: 50.0 mg/kg/injection, schedule: Q01DX005 (ip), vehicle: saline with Tween-80); 130 and 132 % of control (dose: 100.0 mg/kg/injection, schedule: Q01DX005 (ip), vehicle: saline with Tween-80). Moreover, for the setting “dose: 400.0 mg/kg/injection, schedule: Q01DX005 (ip), vehicle: saline with Tween-80”, the survivor count is listed as 3 of 6.

`CCOC(=O)C(CC(C)C)NC(=O)C(Cc1ccc(N(CCCl)CCCl)cc1)NC(C)=O` (stereo not drawn): the T/C is, setting by setting: (dose: 2.0 mg/kg/injection, schedule: Q01DX009 (ip), vehicle: saline) 134 % of control; (dose: 4.0 mg/kg/injection, schedule: Q01DX009 (ip), vehicle: saline) 140 % of control; (dose: 8.0 mg/kg/injection, schedule: Q01DX009 (ip), vehicle: olive oil, sesame oil, peanut oil) 130 % of control; (dose: 8.0 mg/kg/injection, schedule: Q01DX009 (ip), vehicle: saline) 145 % of control; (dose: 8.4 mg/kg/injection, schedule: Q04DX003 (ip), vehicle: saline with Tween-80) 127 % of control; (dose: 12.5 mg/kg/injection, schedule: Q01DX005 (ip), vehicle: Klucel (hydroxypropylcellulose) (HPC)) 144 % of control. The T/C is, setting by setting: (dose: 12.6 mg/kg/injection, schedule: Q04DX003 (ip), vehicle: saline with Tween-80) 132 % of control; (dose: 16.0 mg/kg/injection, schedule: Q01DX009 (ip), vehicle: Klucel (hydroxypropylcellulose) (HPC)) 130 % of control; (dose: 16.0 mg/kg/injection, schedule: Q01DX009 (ip), vehicle: olive oil, sesame oil, peanut oil) 145 % of control; (dose: 25.0 mg/kg/injection, schedule: Q01DX005 (iv), vehicle: Klucel (hydroxypropylcellulose) (HPC)) 142 % of control; (dose: 32.0 mg/kg/injection, schedule: Q01DX009 (ip), vehicle: other) 125 % of control [5 of 6 alive]; (dose: 32.0 mg/kg/injection, schedule: Q01DX009 (ip), vehicle: saline with Tween-80) 127 % of control. Moreover, the T/C runs as follows: (dose: 64.0 mg/kg/injection, schedule: Q01DX009 (ip), vehicle: olive oil, sesame oil, peanut oil) 143 % of control; (dose: 64.0 mg/kg/injection, schedule: Q01DX009 (ip), vehicle: other) 131 % of control; (dose: 64.0 mg/kg/injection, schedule: Q01DX009 (ip), vehicle: saline with Tween-80, evaluated on day 30) 130 % of control; (dose: 64.0 mg/kg/injection, schedule: Q01DX009 (ip), vehicle: saline with Tween-80, evaluated on day 35) 127 % of control; (dose: 64.0 mg/kg/injection, schedule: Q01DX009 (ip), vehicle: saline) 127 % of control; (dose: 128.0 mg/kg/injection, schedule: Q01DX009 (ip), vehicle: other) 149 % of control. Also, the T/C (dose: 128.0 mg/kg/injection, schedule: Q01DX009 (ip), vehicle: saline with Tween-80) is 135 % of control and the T/C (dose: 144.0 mg/kg/injection, schedule: Q04DX003 (ip), vehicle: saline with Tween-80) was 145 % of control. Moreover, the survivor count is, setting by setting: (dose: 100.0 mg/kg/injection, schedule: Q01DX005 (ip), vehicle: Klucel (hydroxypropylcellulose) (HPC)) 6 of 6; (dose: 100.0 mg/kg/injection, schedule: Q01DX005 (iv), vehicle: Klucel (hydroxypropylcellulose) (HPC)) 4 of 6; (dose: 128.0 mg/kg/injection, schedule: Q01DX009 (ip), vehicle: Klucel (hydroxypropylcellulose) (HPC)) 6 of 6; (dose: 128.0 mg/kg/injection, schedule: Q01DX009 (ip), vehicle: olive oil, sesame oil, peanut oil) 5 of 6; (dose: 128.0 mg/kg/injection, schedule: Q01DX009 (ip), vehicle: saline) 10 of 10; (dose: 128.0 mg/kg/injection, schedule: Q04DX003 (ip), vehicle: saline with Tween-80) 10 of 10. For the same compound, the survivor count reads like this: (dose: 256.0 mg/kg/injection, schedule: Q01DX009 (ip), vehicle: Klucel (hydroxypropylcellulose) (HPC)) 4 of 6; (dose: 256.0 mg/kg/injection, schedule: Q01DX009 (ip), vehicle: olive oil, sesame oil, peanut oil) 0 of 6; (dose: 256.0 mg/kg/injection, schedule: Q01DX009 (ip), vehicle: saline) 0 of 10; (dose: 256.0 mg/kg/injection, schedule: Q04DX003 (ip), vehicle: saline with Tween-80) 6 of 10.

As for `C=CCC1OC(=O)CCNC(=O)C(C)N(C)C(=O)C(C(C)C)N(C)C(=O)C(C(C)CC)NC(=O)C2CCCN2C1=O` (stereo not drawn), the survivor count reads like this: (dose: 25.0 mg/kg/injection, schedule: Q01DX005 (ip), vehicle: distilled water + Tween-80) 0 of 6; (dose: 50.0 mg/kg/injection, schedule: Q01DX005 (ip), vehicle: distilled water + Tween-80) 0 of 6; (dose: 100.0 mg/kg/injection, schedule: Q01DX005 (ip), vehicle: distilled water + Tween-80) 0 of 6; (dose: 200.0 mg/kg/injection, schedule: Q01DX005 (ip), vehicle: distilled water + Tween-80) 0 of 6.
